Literature values as cited in publication PMC7811525, “Virtual screening of potentially endocrine-disrupting chemicals against nuclear receptors and its application to identify PPARγ-bound fatty acids” (Archives of Toxicology, 2020).

Test system: PPARα
Design: method as in ToxCast database released in October 2015
Details: active/inactive call; ref ToxCast database released in October 2015; cited from earlier work

Clc1ccc(COC(Cn2ccnc2)c2ccc(Cl)cc2Cl)cc1 (stereo not shown) [econazole]
ToxCast activity against PPARα: active
